According to paper PMC12376700:
No constants are given. Whether binding was seen depends on the method and setting. In cells and extracts the contact can be indirect. Some results given as binding are weak or reduced against the parent protein; the word gives no strength. Tags and fused reporters may be left off the sequences shown.

Protein sequences, listed by entry. Tags and fused reporters are not part of them. Residues count along the entry.
UniProt O35593, residues 234-310: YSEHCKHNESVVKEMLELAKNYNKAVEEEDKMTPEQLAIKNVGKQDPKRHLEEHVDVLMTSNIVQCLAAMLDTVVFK

Biological target: T1, Myc-tagged SLC7A11 (UniProt Q9WTR6)
T1 sequence: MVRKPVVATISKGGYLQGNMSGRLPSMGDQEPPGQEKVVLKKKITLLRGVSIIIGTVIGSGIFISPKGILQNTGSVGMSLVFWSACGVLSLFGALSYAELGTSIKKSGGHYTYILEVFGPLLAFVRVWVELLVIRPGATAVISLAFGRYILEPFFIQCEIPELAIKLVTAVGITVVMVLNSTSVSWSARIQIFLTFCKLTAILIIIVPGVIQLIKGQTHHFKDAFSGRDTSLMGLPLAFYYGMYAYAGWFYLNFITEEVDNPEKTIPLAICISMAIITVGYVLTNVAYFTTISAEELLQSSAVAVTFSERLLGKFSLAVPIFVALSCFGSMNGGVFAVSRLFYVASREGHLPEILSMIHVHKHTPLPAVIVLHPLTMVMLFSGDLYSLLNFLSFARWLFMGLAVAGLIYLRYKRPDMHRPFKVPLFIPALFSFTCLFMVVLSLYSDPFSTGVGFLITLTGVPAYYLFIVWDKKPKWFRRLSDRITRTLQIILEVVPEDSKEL
Assay: co-IP; plasmid-transfected MLO-Y4 cells (Flag-PSMD14 or its fragments with Myc-SLC7A11); immunoprecipitation with anti-Myc antibody or the indicated antibodies, immunoblot; for the full-length pair cells treated with MG132 (10 µM) for 8 h with PBS or DEX (100 µM)

In the case of “Flag-PSMD14 (234–310) (from UniProt O35593 234-310) (domain or fragment)”, the binding is reported as “binds”.
